Test results from paper PMC5437272.
Results are given in words; binding and its absence hold for the method and conditions named. In cells and extracts the contact can be indirect. For part of these data: A result given as binding can be weak or reduced; the word gives no strength.

Sequences of proteins named here, by UniProt entry; tags and fusion partners are left off. A change or cut given only in a name is not applied to a line headed by its entry.
UniProt Q9DCB8: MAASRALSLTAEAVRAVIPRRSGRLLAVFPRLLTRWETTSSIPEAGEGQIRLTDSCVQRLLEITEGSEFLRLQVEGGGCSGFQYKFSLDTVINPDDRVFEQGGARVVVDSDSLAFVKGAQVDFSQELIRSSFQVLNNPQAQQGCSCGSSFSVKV
UniProt Q8CAK1: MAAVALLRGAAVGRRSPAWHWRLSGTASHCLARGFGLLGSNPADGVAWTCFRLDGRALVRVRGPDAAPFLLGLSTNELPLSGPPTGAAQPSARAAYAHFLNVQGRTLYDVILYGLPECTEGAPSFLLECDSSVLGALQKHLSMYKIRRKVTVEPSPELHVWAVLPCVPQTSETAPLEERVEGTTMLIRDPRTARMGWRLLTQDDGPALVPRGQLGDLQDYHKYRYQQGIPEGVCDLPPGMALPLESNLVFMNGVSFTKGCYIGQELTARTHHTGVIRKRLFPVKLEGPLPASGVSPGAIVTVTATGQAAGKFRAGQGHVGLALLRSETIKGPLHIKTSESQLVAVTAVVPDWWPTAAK

Columns and labels:
[1] = target: ISCA2-Flag (mouse ISCA2 with a C-terminal Flag epitope) (mouse) (UniProt Q9DCB8); experiment: co-IP; Flag M2 resin IP from mitochondria-enriched extracts of N2a cells transfected with ISCA1-Flag, ISCA2-Flag or IBA57-Flag, versus control IP; western blot of the eluates
[2] = target: IBA57-Flag (mouse IBA57 with a C-terminal Flag epitope) (mouse) (UniProt Q8CAK1); experiment: as above

Binder	binding [1]	binding [2]
GLRX5 (endogenous, N2a) (protein, UniProt Q80Y14 32-152) ASSGGQAEQLDALVKKDKVVVFLKGTPEQPQCGFSNAVVQILRLHGVRDYAAYNVLDDPELRQGIKDYSNWPTIPQVYLNGEFVGGCDILLQMHQNGDLVEELKKLGIRSALVDEKDQDSK	binds	–
NFU1 (endogenous, N2a) (protein, UniProt Q9QZ23 30-255) FKKQPLHQYVRRPLFPLRAPLCNTVRFMFIQTQDTPNPNSLKFIPGKPVLETRTMDFPTPAAAFRSPLARQLFRIEGVKSVFFGPDFITVTKENEELDWNLLKPDIYATIMDFFASGLPLVTEETPPPPGEAGSEEDDEVVAMIKELLDTRIRPTVQEDGGDVIYRGFEDGIVRLKLQGSCTSCPSSIITLKSGIQNMLQFYIPEVEGVEQVMDDDESDEKEANSS	no binding	no binding
